Measured values as given in publication PMC5705611.
No constants are given. Whether binding was seen depends on the method and setting. For some assays here: Binding calls can cover weak binding; strength is not graded here. Where a sequence is shown, tags or fusion partners need not be part of it.

Chains of the proteins cited; added tags and fusions are not shown. Lines headed by an entry give the natural chain unless they say otherwise; changes in a name come on top.
UniProt Q2V452: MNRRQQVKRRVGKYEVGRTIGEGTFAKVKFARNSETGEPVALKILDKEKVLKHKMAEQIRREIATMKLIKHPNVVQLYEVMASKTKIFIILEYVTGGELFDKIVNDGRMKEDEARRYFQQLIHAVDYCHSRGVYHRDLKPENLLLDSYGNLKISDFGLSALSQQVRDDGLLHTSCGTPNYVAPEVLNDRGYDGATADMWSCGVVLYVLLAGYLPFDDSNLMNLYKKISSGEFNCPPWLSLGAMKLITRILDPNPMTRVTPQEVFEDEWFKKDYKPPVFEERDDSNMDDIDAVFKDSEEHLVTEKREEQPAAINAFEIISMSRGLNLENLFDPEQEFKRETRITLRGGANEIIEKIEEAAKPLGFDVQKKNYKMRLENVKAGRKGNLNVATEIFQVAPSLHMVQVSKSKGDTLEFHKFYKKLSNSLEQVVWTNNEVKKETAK

Assays:
Test in all cases: two-hybrid; yeast AH109 with AD-ABR1 and BD-CIPK3.1, BD-CIPK3.2, BD-CIPK3.3, BD-CIPK3.4 or CIPK3K in pGBT9.BS; spot dilution on SD-HLW + 0.1 mM 3AT and SD-HLW + 0.25 mM 3AT; also ONPG-based beta-galactosidase assay
[1] = target: BD-CIPK3.1 (CBL-interacting protein kinase 3, splice variant CIPK3.1) (Arabidopsis thaliana)
[2] = target: BD-CIPK3.2 (CBL-interacting protein kinase 3, splice variant CIPK3.2) (Arabidopsis thaliana)
[3] = target: BD-CIPK3.3 (CBL-interacting protein kinase 3, splice variant CIPK3.3) (Arabidopsis thaliana)
[4] = target: BD-CIPK3.4 (CBL-interacting protein kinase 3, splice variant CIPK3.4) (Arabidopsis thaliana) (UniProt Q2V452)
[5] = target: CIPK3K (kinase domain of CIPK3, without regulatory domain) (Arabidopsis thaliana)

binding [1]: binds | binding [2]: binds | binding [3]: no binding | binding [4]: no binding | binding [5]: no binding
B1: AD-ABR1 (AP2-domain containing transcription factor ABR1) (protein, UniProt Q9FGF8 1-391)
chain: MCVLKVANQEDNVGKKAESIRDDDHRTLSEIDQWLYLFAAEDDHHRHSFPTQQPPPSSSSSSLISGFSREMEMSAIVSALTHVVAGNVPQHQQGGGEGSGEGTSNSSSSSGQKRRREVEEGGAKAVKAANTLTVDQYFSGGSSTSKVREASSNMSGPGPTYEYTTTATASSETSSFSGDQPRRRYRGVRQRPWGKWAAEIRDPFKAARVWLGTFDNAESAARAYDEAALRFRGNKAKLNFPENVKLVRPASTEAQPVHQTAAQRPTQSRNSGSTTTLLPIRPASNQSVHSQPLMQSYNLSYSEMARQQQQFQQHHQQSLDLYDQMSFPLRFGHTGGSMMQSTSSSSSHSRPLFSPAAVQPPPESASETGYLQDIQWPSDKTSNNYNNSPSS
